Assay results taken from PubChem BioAssay AID1671190 (National Center for Advancing Translational Sciences (NCATS), 2021).
About 6,100 (1.1%) of roughly 580,000 compounds were called active. Inconclusive results, whose numbers are uncertain, are shown with a selection of clear calls. The call rests on the fitted dose curve; in most records, active means well fitted inhibition curve with a large enough effect; inconclusive means small, poorly fitted or top-dose-only effect, or another doubt; inactive means no such curve, though single readings can be large or run the other way. A potency beside an inconclusive call is a rough fit, not a confirmed value.

Amino acid sequences for entries named in this document (tags omitted).
UniProt P18054, whole entry, looked up: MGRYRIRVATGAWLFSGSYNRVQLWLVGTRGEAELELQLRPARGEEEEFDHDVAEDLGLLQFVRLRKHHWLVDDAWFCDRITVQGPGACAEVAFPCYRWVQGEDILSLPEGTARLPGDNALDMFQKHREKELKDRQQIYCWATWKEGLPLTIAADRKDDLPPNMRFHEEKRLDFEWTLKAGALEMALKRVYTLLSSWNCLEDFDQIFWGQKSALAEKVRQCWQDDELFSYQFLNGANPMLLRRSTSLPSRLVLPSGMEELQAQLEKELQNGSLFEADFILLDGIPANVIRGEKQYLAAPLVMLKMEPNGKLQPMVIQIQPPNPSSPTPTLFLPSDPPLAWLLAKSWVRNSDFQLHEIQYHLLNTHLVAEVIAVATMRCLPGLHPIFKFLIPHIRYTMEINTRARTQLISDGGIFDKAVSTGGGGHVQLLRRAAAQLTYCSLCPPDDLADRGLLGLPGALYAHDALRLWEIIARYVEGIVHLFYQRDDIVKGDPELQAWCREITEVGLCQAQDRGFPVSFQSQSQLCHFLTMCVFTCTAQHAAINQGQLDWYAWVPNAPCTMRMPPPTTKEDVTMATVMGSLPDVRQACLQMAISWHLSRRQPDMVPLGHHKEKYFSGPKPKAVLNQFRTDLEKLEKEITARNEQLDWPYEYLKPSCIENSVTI

Biological target: Polyunsaturated fatty acid lipoxygenase ALOX12 (Homo sapiens) (UniProt P18054)
Experiment: Primary qHTS assay for inhibitors of human arachidonate 12S-lipoxygenase (ALOX12): Round 2
Settings: purified 12hLO, xylenol orange hydroperoxide absorbance; series mostly up to 108 µM
Method in brief: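 Hydroperoxide product was detected by ferrous iron/xylenol orange as the 573 to 405 nm absorbance ratio. Arachidonic acid at 40 uM (final) was turned over for 30 min at room temperature by 150 nM human 12hLO, pH 7.0 Hepes buffer, after 15 min compound preincubation.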
Potency means the concentration at half of the fitted maximal effect.

Row | SMILES | Potency
1 | CCN1c2cc(C(=O)Nc3ccc(C(F)(F)F)cc3)ccc2C(=O)N2CCCC21 (stereo not drawn) | inactive
2 | Cc1nn(C)cc1C(=O)NNC(=S)Nc1ccc(Cl)cc1 | inconclusive: 35.5 µM [inhibitor, partial curve, poor fit]
3 | O=C(O)c1cccc(N2C(=O)c3cc4cccc(Br)c4cc3C2=O)c1 | inconclusive: 17.8 µM [inhibitor, partial curve, poor fit]
4 | Nc1cccc(-c2cc(C(=O)O)c3cc(Br)ccc3n2)c1 | inconclusive: 44.7 µM [inhibitor, partial curve, poor fit]
5 | COc1ccc(C2C(C#N)=C(N)Oc3cc(O)ccc32)cc1Cl (stereo not drawn) | active: 31.6 µM
6 | O=C(O)Cn1ccc2cc(OCCc3cccc(-c4cccc(F)c4)c3)cnc21 | active: 50.1 µM
7 | CCCC(=O)N1N=C(c2ccc(OC)cc2)CC1c1ccc2nccnc2c1 (stereo not drawn) | inconclusive: 126 µM [inhibitor, single point]
8 | CC(Oc1ccc(Br)cc1)C(=O)Nc1cc(Cl)ccc1N1CCN(C)CC1 (stereo not drawn) | inconclusive: 39.8 µM [inhibitor, partial curve, poor fit]
9 | O=C(O)CN1C(=O)C=CC1=O | inactive
10 | CCCn1nc(NC(=O)c2cccs2)c2cc3cc(C)ccc3nc21 | inconclusive: 0.282 µM [inhibitor, full curve, poor fit]
11 | COC(=O)/C(=C\C(=O)c1ccc([N+](=O)[O-])cc1)Nc1ccc(OC)cc1 | inconclusive: 39.8 µM [inhibitor, partial curve, poor fit]
12 | O=C1c2ccccc2NC(c2ccccc2O)N1c1ccc(F)cc1 (stereo not drawn) | inconclusive: 79.4 µM [inhibitor, single point]
13 | NC(N)=NC(N)=NCc1ccncc1 | inconclusive: 35.5 µM [inhibitor, partial curve, poor fit]
14 | Cc1cc(C)c(S(=O)(=O)Nc2cccc3cccnc23)c(C)c1 | inactive
15 | COC(=O)C1=C(C)N(Cc2ccc(C(F)(F)F)cc2)C(=NCc2ccc(C(F)(F)F)cc2)NC1c1cccc(Cl)c1 (stereo not drawn) | inconclusive: 50.1 µM [inhibitor, partial curve, poor fit]
16 | COc1ccc(C(=O)Nc2ccccc2C(=O)Nc2ccccc2C(=O)O)cc1 | inconclusive: 44.7 µM [inhibitor, partial curve, poor fit]
17 | COCC(=O)N[C@H]1C[C@@H](CO)N(Cc2cccc(C#N)c2)C1 | inconclusive: 11.2 µM [inhibitor, partial curve, poor fit]
18 | N#CCC(=O)N/N=C/c1cn(Cc2ccccc2C#N)c2ccccc12 | inconclusive: 126 µM [inhibitor, single point]
19 | CC(c1ccccc1)C(CC(=O)O)C(=O)NC1CCCCC1 (stereo not drawn) | inactive
20 | CN1CCCC(OC(=O)/C=C/c2ccccc2)C1 (stereo not drawn) | inconclusive: 44.7 µM [inhibitor, partial curve, poor fit]
21 | CC(C(=O)OCC(=O)Nc1ccc(S(=O)(=O)N2CCCCC2)cc1)N1C(=O)c2ccccc2C1=O (stereo not drawn) | inconclusive: 7.94 µM [inhibitor, full curve, poor fit]
22 | COc1ccc(CN(C)Cc2ccccc2)c(OC)c1OC | inconclusive: 6.31 µM [inhibitor, full curve, poor fit]
23 | O=C1C(=O)c2ccc(-c3ccccc3)cc2-c2ccccc21 | inactive

Row | SMILES | Potency
24 | Nc1ccc([N+](=O)[O-])cc1C(=O)O | inactive
25 | CC(=O)N1CCC2(CC1)C/C(=N\NC(=S)Nc1ccccc1F)c1cc(O)ccc1O2 | inconclusive: 44.7 µM [inhibitor, partial curve]
26 | O=C(Nc1ccc2c(c1)OCCO2)C1c2ccccc2OCC(=O)N1CCc1c[nH]c2ccccc12 (stereo not drawn) | inconclusive: 17.8 µM [inhibitor, partial curve, poor fit]
27 | COc1ccc(CC(=O)Nc2cnc(-c3ccc(C)cc3)nc2)cc1 | inactive
28 | CN1CCN(S(=O)(=O)c2ccc(Cl)c(C(F)(F)F)c2)CC1 | inconclusive: 44.7 µM [inhibitor, partial curve, poor fit]
29 | CSc1cccc(NC(=O)Cn2ncn3c(cc4ccccc43)c2=O)c1 | inactive
30 | CCc1nnc(NC(=O)c2cc(Cl)ccn2)s1 | inconclusive: 44.7 µM [inhibitor, partial curve, poor fit]
31 | Cn1cncc1C#Cc1ccc2cc(C(C)(C)O)oc(=O)c2c1 | inactive
32 | O=C(CCc1c[nH]c2ccccc12)NC(Cc1c[nH]c2ccccc12)C(=O)O (stereo not drawn) | inconclusive: 79.4 µM [inhibitor, single point]
33 | Cc1nc2c(-c3ccc(F)cc3)c(C)nn2c(C)c1CCC(=O)NCCN1CCOCC1 | inactive
34 | CC(NC(=S)NC(=O)c1ccccc1Br)c1ccccc1 (stereo not drawn) | inconclusive: 100 µM [inhibitor, single point]
35 | CCOC(=O)C1Nc2ccc(C(F)(F)F)cc2C2C=CCC12 (stereo not drawn) | active: 17.8 µM
36 | C=CCSc1nnc2c(n1)OC=Nc1ccc(Br)cc1-2 | inconclusive: 79.4 µM [inhibitor, partial curve, poor fit]
37 | Cc1ccc(C)c(C(=O)OCC(=O)c2c[nH]c3ccccc23)c1 | inactive
38 | O=C(CNS(=O)(=O)c1cccc2nsnc12)NCc1ccc(Cl)cc1 | inconclusive: 50.1 µM [inhibitor, partial curve, poor fit]
39 | CCOC(=O)C1CCN(C(=O)CCCNC(=O)Cn2cnc3sc(C)c(C)c3c2=O)CC1 | inactive
40 | CC(C)C(=O)NCC(C)(C)CNC(=O)C(C)C | inactive
41 | CN(C)N1C(N)=C(C#N)C(c2ccccc2Cl)C2=C1CCCC2=O (stereo not drawn) | inconclusive: 39.8 µM [inhibitor, single point]
42 | CN1CCC([C@@H]2CN(C(=O)c3nn(C)c4ccccc34)C[C@H]2C(N)=O)CC1 | inconclusive: 35.5 µM [inhibitor, single point]
43 | CN(C)c1ccc(-c2nn3c(CN4CCCCC4)nnc3s2)cc1 | inconclusive: 63.1 µM [inhibitor, partial curve, poor fit]
44 | C=C(CN(C)C)C(=O)c1ccc(C)cc1C | inconclusive: 39.8 µM [inhibitor, partial curve, poor fit]
45 | COc1cccc2cc(C(=O)N3CC(C)OC(C)C3)c(=O)oc12 (stereo not drawn) | inactive
46 | COc1ccc(CNC2CCSc3ccccc32)cc1OC (stereo not drawn) | inconclusive: 1.58 µM [inhibitor, full curve]

Some of these compounds in order of number of heavy atoms, low to high:
Row | SMILES | Potency
46 | COc1ccc(CNC2CCSc3ccccc32)cc1OC (stereo not drawn) | inconclusive: 1.58 µM [inhibitor, full curve]
32 | O=C(CCc1c[nH]c2ccccc12)NC(Cc1c[nH]c2ccccc12)C(=O)O (stereo not drawn) | inconclusive: 79.4 µM [inhibitor, single point]
16 | COc1ccc(C(=O)Nc2ccccc2C(=O)Nc2ccccc2C(=O)O)cc1 | inconclusive: 44.7 µM [inhibitor, partial curve, poor fit]

Next part

Row | SMILES | Potency
47 | CC(=O)C1=C(O)C(=O)N(C2CCCCC2)C1c1ccccc1 (stereo not drawn) | inconclusive: 50.1 µM [inhibitor, single point]
48 | CCOC(=O)C1=C(CNc2ccc(C)c(Cl)c2)NC(=O)NC1c1ccc(Cl)cc1 (stereo not drawn) | active: 8.91 µM
49 | Cc1ccc(Nc2cc(Cl)c3nonc3c2[N+](=O)[O-])cc1 | inconclusive: 39.8 µM [inhibitor, partial curve, poor fit]
50 | O=C(O)c1cc(NN=Nc2ccc(Br)cc2)cc([N+](=O)[O-])c1 | inconclusive: 3.98 µM [inhibitor, full curve, poor fit]
51 | COc1ccc(C2(C(=O)NC3CCCc4c3[nH]c3ccccc43)CCOCC2)cc1 (stereo not drawn) | active: 35.5 µM
52 | CCN(CC)S(=O)(=O)c1cc(NC(=O)C(CC(C)C)NC(N)=O)ccc1C (stereo not drawn) | inactive
53 | COc1ccccc1CNC(=O)COC(=O)COc1ccccc1F | inconclusive: 126 µM [inhibitor, single point]
54 | COc1ccc(N=Nc2ccc(O)c3ncccc23)cc1 | inconclusive: 35.5 µM [inhibitor, partial curve, poor fit]
55 | CCOC(=O)C1CCN([C@H]2CS(=O)(=O)C[C@@H]2S(=O)(=O)c2ccc(Cl)cc2)CC1 | inconclusive: 50.1 µM [inhibitor, partial curve, poor fit]
56 | NC(=O)c1cc(C(=O)O)c[nH]1 | inconclusive: 141 µM [inhibitor, single point]
57 | CCOc1ccc(C(=O)/C=C/Nc2ccc(S(=O)(=O)Nc3cc(C)nc(C)n3)cc2)cc1 | inconclusive: 50.1 µM [inhibitor, partial curve, poor fit]
58 | O=C(OCC(=O)N1CCCCCC1)c1cc(S(=O)(=O)N2CCOCC2)ccc1F | inconclusive: 112 µM [inhibitor, single point]
59 | O=C(Nc1ccc2c(c1)OCO2)c1ccc(Cl)cc1Cl | inactive
60 | Cc1cccc(C)c1-n1nnnc1C1(C)CCC(=O)N1c1ccc(N2CCOCC2)cc1 (stereo not drawn) | active: 11.2 µM
61 | CCN(CC)S(=O)(=O)c1cc(NC(=O)c2ccc3c(c2)NC(=O)C(C)S3)ccc1C (stereo not drawn) | inconclusive: 28.2 µM [inhibitor, partial curve, poor fit]
62 | CCOC(=O)c1cc(-c2ccncc2)nc2c1c(C)nn2-c1ccccn1 | inactive
63 | O=C(O)c1ccc(S(=O)(=O)c2ccc3c(c2)C(=O)N(NC(=O)c2ccc(O)cc2)C3=O)cc1 | inactive
64 | CCCC(=O)Nc1ccc(Cl)c(-c2nc3ccccc3o2)c1 | inconclusive: 56.2 µM [inhibitor, partial curve, poor fit]
65 | COc1ccc(NC(=O)CN2CCN(CC(=O)Nc3cc(OC)cc(OC)c3)CC2)cc1 | inconclusive: 3.98 µM [inhibitor, full curve, poor fit]
66 | O=C1COc2ccc(-c3cc(-c4ccccc4)c4c(n3)-c3cc(Cl)ccc3OC4)cc2N1 | inactive
67 | CC1=C(C)CC(C(=O)N2CCCC2)C(C(=O)O)C1 (stereo not drawn) | inconclusive: 56.2 µM [inhibitor, partial curve, poor fit]
68 | O=[N+]([O-])c1ccc(NN=C(C2CC2)C2CC2)c([N+](=O)[O-])c1 | inconclusive: 56.2 µM [inhibitor, partial curve, poor fit]

As entered above.
Value for `O=C1COc2ccc(-c3cc(-c4ccccc4)c4c(n3)-c3cc(Cl)ccc3OC4)cc2N1` under Potency: inactive
Value for `CCOC(=O)C1=C(CNc2ccc(C)c(Cl)c2)NC(=O)NC1c1ccc(Cl)cc1` (stereo not drawn) under Potency: active: 8.91 µM
